Article PMC3484135

System: E47 HLH
Assay: EMSA
Conditions: E47 alone, ID2/ID3 assayed as inhibitors of this complex; proteins in 50 mM Tris, 300 mM NaCl, pH 8.0; binding buffer 20 mM Tris pH 8, 50 mM KCl, 1 mM DTT, 1 mM EDTA, 10% glycerol, 0.1 mg/mL BSA; 20 ul, room temperature; recombinant protein; protein details: His-MBP, removed by TEV; label: 5'-Cy5

GGATCCCCCCAACACCTGCTGCCTGA (double strand) [E-box probe (MCK enhancer type)]
binding result: binds

For at least one entry, the source does not settle the construct or the ends of the probe. At least one verdict rests on a figure or table, not on a statement of the authors.
